From US8546095B2, “Methods for determination of calcineurin activity and uses in predicting therapeutic outcomes” (Emory University, priority 2007, dated 2013)
At least one compound was matched to its structure with a doubt left.

Test system: calcineurin
Experiment: Fluorimetric calcineurin assay in cultured primary renal fibroblasts

For `C[C@@H]1C[C@H]2[C@@H]3CCC4=CC(=O)C=C[C@]4(C)[C@@]3(F)[C@@H](O)C[C@]2(C)[C@@]1(O)C(=O)CO` [dexamethasone], the “stimulation of calcineurin activity” value was “significantly stimulated calcineurin activity”.
